Patent US9402820B2, “Use of pyruvate or succinate to enhance the efficacy of a hypoxia activated prodrug for the treatment of tumors” (THE UNITED STATES OF AMERICA AS REPRESENTED BY THE …, priority 2011, dated 2016)
At least one structure is not confirmed: it was looked up by name or label, or the drawing left a doubt.

Legend:
SCCVII cells = assay: Oxygen consumption rate (OCR) in SCCVII cells in vitro; type: cell-based, mouse; details: pyruvate 0.2 mM, 0.5 mM, and 2 mM for 21 minutes
[1] = system: Human pancreatic solid tumors (SU8686, MiaPaca, HS766T); assay: EPRI of tumor pO2 after pyruvate in human pancreatic tumor-bearing mice; type: in vivo; details: [1-13C]pyruvate 1.15 mmol/kg i.v.; 10 minutes, 30 minutes, 1 hour; athymic nude mice; n=5-6
SCC tumor = assay: Tumor growth after X-irradiation (12 Gy) with [1-13C]pyruvate injection; type: in vivo, mouse; details: X-irradiation 12 Gy 5 hours after pyruvate injection
Text: Mice were fixed in the specially designed jig for X-irradiation, by which mice were restricted from moving without anesthesia. X-irradiation (12 Gy) was delivered to tumor-bearing leg 6 days after SCC tumor implantation using a XRAD-320 (Precision X-ray Inc.).
Hypoxia is a critical factor that determines tumor resistance to radiotherapy and some kinds of chemotherapy. Although the pyruvate-induced hypoxia is transient, the decrease in oxygen concentration may limit the efficacy of cancer therapy, if the cancer treatments are provided immediately after MRI with hyperpolarized [1-^13C]pyruvate. To elucidate the effect of exogenously injected pyruvate on radiotherapy, tumor growth was monitored after X-irradiation with and without [1-^13C]pyruvate injection (FIG. 4). X-irradiation (12 Gy) without pyruvate administration suppressed the tumor growth for 6-7 days compared with non-treated control group which received neither X-irradiation nor pyruvate administration. […] Secondary mechanisms such as activation of hypoxia inducible transcription factor-1 signaling during the pyruvate-induced transient hypoxia might partially contribute to the long lasting effect of pyruvate on radiotherapy in addition to the direct effect of oxygen concentration at the time of radiation. […]

[2] = system: SCCVII (mouse squamous cell carcinoma) tumors; assay: SCCVII tumor growth with TH-302 alone, pyruvate alone or in combination; type: in vivo; details: treatment starting 7 days post-tumor implantation, daily for 3 days
Experimental: Mouse legs bearing tumors were prepared by subcutaneously injecting 5×10^5 SCCVII (mouse squamous cell carcinoma) cells or 1×10^6 HT29 (human colon cancer) cells to the hind leg of C3H or athymic nude mice, respectively. When tumor size became 400-500 mm^3, treatments were initiated. Mice were treated daily for 3 days with hypoxia-activated prodrug TH-302 (100 mg/kg/day, i.p.) alone, pyruvate (1.15 mmol/kg/day, i.v.) alone, or TH-302 injection 30 min. after pyruvate injection. Treatments were started on day 7 (SCCVII; FIG. 6A) or day 8 (HT29; FIG. 6B). […] Tumor growth (volume/size in mm^3) was measured daily by caliper.

CC(=O)C(=O)O [pyruvate, 2-oxopropanoate]
oxygen consumption rate (OCR), percent change from baseline (SCCVII cells): increased | induction of hypoxia (tumor pO2, hypoxic fraction) in pancreatic tumors [1]: can induce hypoxia | effect of pyruvate-induced decrease in tumor oxygenation on radiotherapy (SCC tumor): observed even 5 hours after pyruvate injection | effect on SCCVII tumor growth [2]: minor or small effect
